{"sequences": {"note": "Chains of the proteins cited; added tags and fusions are not shown.", "UniProt P05787": "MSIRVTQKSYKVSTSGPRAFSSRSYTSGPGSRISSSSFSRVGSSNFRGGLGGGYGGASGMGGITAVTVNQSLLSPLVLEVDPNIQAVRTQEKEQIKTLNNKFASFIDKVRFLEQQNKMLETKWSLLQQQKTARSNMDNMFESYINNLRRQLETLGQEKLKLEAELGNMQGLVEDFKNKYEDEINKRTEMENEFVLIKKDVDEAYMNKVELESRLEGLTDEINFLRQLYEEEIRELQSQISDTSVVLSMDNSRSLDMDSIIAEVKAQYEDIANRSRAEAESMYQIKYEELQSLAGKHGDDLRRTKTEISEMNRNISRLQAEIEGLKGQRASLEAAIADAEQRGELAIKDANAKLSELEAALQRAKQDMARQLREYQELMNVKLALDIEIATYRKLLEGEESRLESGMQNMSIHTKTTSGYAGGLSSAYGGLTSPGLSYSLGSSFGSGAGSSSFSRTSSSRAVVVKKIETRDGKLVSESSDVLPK"}, "source": "paper PMC8227998", "key": {"human Keratin 18 (human)": {"target": "T1, human Keratin 18 (human) (UniProt P05783)", "T1 sequence": "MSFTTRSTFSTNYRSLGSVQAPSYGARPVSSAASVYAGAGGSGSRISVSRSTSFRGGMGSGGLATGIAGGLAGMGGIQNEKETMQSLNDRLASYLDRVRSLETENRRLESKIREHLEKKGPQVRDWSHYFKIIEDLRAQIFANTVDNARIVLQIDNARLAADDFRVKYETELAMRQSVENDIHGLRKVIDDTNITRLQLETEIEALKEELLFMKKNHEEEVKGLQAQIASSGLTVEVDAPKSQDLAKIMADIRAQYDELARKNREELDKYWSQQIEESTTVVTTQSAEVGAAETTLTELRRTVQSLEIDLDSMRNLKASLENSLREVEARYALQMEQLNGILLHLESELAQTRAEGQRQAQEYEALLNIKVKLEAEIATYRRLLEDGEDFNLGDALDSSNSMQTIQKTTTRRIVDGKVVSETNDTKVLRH", "test": "FRET or BRET; wide-field FRET on fixed, immunostained CHO-K1 cells transiently (co-)transfected with K8 or K18 with or without p62-H1 or p62-H2; AF488 (K8/18) to rhodamine (p62) on secondary antibodies; static FRET corrected for bleed-through and crosstalk and normalized to acceptor and donor fluorescence; spatial resolution approximately 20 nm"}, "human Keratin 8 (human)": {"target": "human Keratin 8 (human) (UniProt P05787)", "test": "FRET or BRET; wide-field FRET on fixed, immunostained CHO-K1 cells transiently (co-)transfected with K8 or K18 with or without p62-H1 or p62-H2; AF488 (K8/18) to rhodamine (p62) on secondary antibodies; static FRET corrected for bleed-through and crosstalk and normalized to acceptor and donor fluorescence; spatial resolution approximately 20 nm"}}, "note": "No constants are given. Whether binding was seen depends on the method and setting. Binding seen in cells or lysates may run through a third protein. Some entries that bind do so weakly or less than the wild type."}
{"substance": "human p62 isoform-2 (p62/Sequestosome-1, SQSTM1) (from UniProt Q13501-2 1-356)", "values": [{"measurement": "binding", "setting": "human Keratin 18 (human)", "result": "binds"}, {"measurement": "binding", "setting": "human Keratin 8 (human)", "result": "binds"}]}
